Patent US8206955B2, “Production of monatin and monatin precursors” (Cargill, Incorporated, priority 2003, dated 2012)
Some of these results come from one statement about several compounds together. Some ranges recur; such a range may be that of the whole group of compounds.

Test: in vitro monatin production with aldolase and aminotransferase
Format: biochemical
Settings: enzyme added as the aminotransferase with ProA aldolase, in place of E. coli L-aspartate aminotransferase

B1: E. coli tyrB: E. coli tyrosine aminotransferase (tyrB, SEQ ID NOS: 31 and 32) (protein)
chain: VFQKVDAYAGDPILTLMERFKEDPRSDKVNLSIGLYYNEDGIIPQLQAVAEAEARLNAQPHGASLYLPMEGLNCYRHAIAPLLFGADHPVLKQQRVATIQTLGGSGALKVGADFLKRYFPESGVWVSDPTWENRVAIFAGAGFEVSTYPWYDEATNGVRFNDLLATLKTLPARSIVLLHPCCHNPTGADLTNDQWDAVIEILKARELIPFLDIAYQGFGAGMEEDAYAIRAIASAGLPALVSNSFSKIFSLYGERVGGLSVMCEDAEAAGRVLGQLKATVRRNYSSPPNFGAQVVAAVLNDEALKASWLAEVEEMRTRILAMRQELVKVLSTEMPERNFDYLLNQRGMFSYTGLSAAQVDRLREEFGVYLIASGRMCVAGLNTANVQRVAKAFAAVM
modifications: E. coli
monatin concentrations produced: 0.1 to 0.5 mg/mL
